Among all 300,000 compounds or so, about 5,400 (1.8%) were called active. The shares of active, inactive and inconclusive entries below differ from those in the screen. Calls come from the whole dose curve; tested in HEK293 cells. A potency beside an inconclusive call is a rough fit, not a confirmed value.
Test: qHTS for inhibitors of binding or entry into cells for Marburg Virus
Conditions: Marburg virus pseudotyped entry inhibition, cell reporter; series mostly up to 37.8 µM
Potency is the fitted concentration of half-maximal effect.

Structure (SMILES) | Potency
CSc1ccc(S(=O)(=O)NCC(=O)OCC(=O)N(C)C2CCCCC2)cc1[N+](=O)[O-] | inconclusive: 20 µM [inhibitor, partial curve, poor fit]
COc1ccc(S(=O)(=O)N(C)c2ccc(C(=O)N3CCC(C(N)=O)CC3)cc2)cc1 | inactive
Cc1cc(OCCn2cnc3ccccc3c2=O)ccc1[N+](=O)[O-] | inactive
C=CCOC(=O)C1=C(C)Nc2nc3ccccc3n2C1c1ccncc1 (configuration not stated) | inconclusive: 20.6 µM [inhibitor, partial curve, poor fit]
CCCOC(=O)/C(C(N)=NCc1ccccc1)=C(\O)OCCC | inconclusive: 32.6 µM [inhibitor, partial curve, poor fit]
CC1CC(C)CN(S(=O)(=O)c2ccc3c(c2)oc(=O)n3CC(=O)NCc2cccnc2)C1 (configuration not stated) | inconclusive: 3.98 µM [inhibitor, partial curve, poor fit]
COc1ccc(NC(=O)NC2CCCc3ccccc32)c(OC)c1 (configuration not stated) | inactive
COc1ccccc1-c1c(C(F)(F)F)oc2cc(OCC(=O)Nc3ccccc3C(F)(F)F)ccc2c1=O | inactive
CC(=O)c1cccc(OCCCOc2cccc3cccnc23)c1 | inconclusive: 17.8 µM [activator, partial curve, poor fit]
CN1CCN(c2ccccc2NC(=O)c2ccc(-c3ccc(Cl)c(Cl)c3)o2)CC1 | inconclusive: 35.5 µM [inhibitor, single point]
CCCCCC(=O)N/N=C(\C)c1ccc(NC(=O)c2ccco2)cc1 | inactive
Cc1cnc(NC(=O)CSc2ccc(Cl)cc2)s1 | inactive
NC(=O)c1ccc2nc(NC(=O)c3ccc(N)cc3)sc2c1 | inconclusive: 0.562 µM [activator, partial curve, poor fit]
O=S(=O)(Nc1nc2n(n1)C(c1ccccc1)C=C(c1ccc(Cl)cc1)N2)c1ccccc1 (configuration not stated) | inactive
COc1ccc(C)cc1NC(=O)CN(C)C1CCCCC1 | inactive
CCCN1CCN(C(=S)Nc2ccc([N+](=O)[O-])cc2)CC1 | inactive
COc1ccc(N2C(=O)CC(N3CCC(O)(c4ccc(Br)cc4)CC3)C2=O)cc1 (configuration not stated) | inconclusive: 2.24 µM [activator, partial curve, poor fit]
Cc1ccc(-c2nnc(SCC(=O)N3CCCC3)o2)cc1C | inconclusive: 0.794 µM [activator, full curve, poor fit]
CC(=O)C(Cc1ccccc1)NC(=O)CN(C)Cc1ccccc1Cl (configuration not stated) | inconclusive: 35.5 µM [inhibitor, single point]
CCOc1ccccc1NC(=O)C1CCN(C(=O)C2CC(=O)N(c3ccc(C)cc3)C2)CC1 (configuration not stated) | inconclusive: 3.16 µM [activator, single point]
CC(=O)c1cccc(NC(=O)c2ccc(OC3CSC3)cc2)c1 | inconclusive: 2.51 µM [activator, partial curve, poor fit]
COCCNC(=O)c1cn(C)c(=O)c2cc(OC)c(OC)cc12 | inactive
Cc1cccc(NC(=O)c2ccco2)c1C(=O)O | inconclusive: 4.47 µM [inhibitor, single point]
CC(=O)c1cnn(-c2nc3c(C)cccc3s2)c1C | inactive

Pulled by compound from the entries so far (2):
Structure (SMILES) | Potency
CC(=O)c1cnn(-c2nc3c(C)cccc3s2)c1C | inactive
COc1ccc(NC(=O)NC2CCCc3ccccc32)c(OC)c1 (configuration not stated) | inactive

Carrying on:

Structure (SMILES) | Potency
Cc1ccc2[nH]cc(CCNC(=O)Nc3ccccc3)c2c1 | inactive
O=C(CN(Cc1ccccc1Cl)C(=O)CNS(=O)(=O)c1ccccc1)NCC1CCCO1 (configuration not stated) | inconclusive: 35.5 µM [activator, single point]
CC1CN(c2ccccc2)c2nc3c(c(=O)[nH]c(=O)n3C)n2C1 (configuration not stated) | inactive
COc1cc(CNn2c(C)n[nH]c2=S)cc(Cl)c1OCC(=O)NC(C)(C)C | inconclusive: 11.2 µM [inhibitor, partial curve, poor fit]
CCC(CO)NCc1ccc(-c2ccccc2)cc1 (configuration not stated) | inactive
Cc1ccccc1C1NC(=S)NC2=C1C(=O)CC(C)(C)C2 (configuration not stated) | inconclusive: 17.8 µM [activator, single point]
O=C1N=C(N2CCCC2)S/C1=C\c1ccccc1 | inconclusive: 3.55 µM [inhibitor, full curve]
CCCC[N+]12CCC(CC1)C(C(=O)c1cccs1)C2 (configuration not stated) | inactive
CCN(Cc1ccncc1)C(=O)c1ccc(C)c(S(=O)(=O)N2CCCCC2)c1 | inactive
CN(C(=O)c1cc2c(=O)n3ccccc3nc2n1C)C1CCCCC1 | inconclusive: 31.6 µM [inhibitor, single point]
Cc1cccc(-c2cc3nc(C)cc(C)n3n2)c1 | inconclusive: 0.562 µM [activator, partial curve, poor fit]
CCOC(=O)Nc1ccc2c(c1)Cc1cc([N+](=O)[O-])ccc1-2 | inactive
O=c1oc2ccc(Br)cc2cc1-c1nc2ccccc2o1 | inactive
O=C(CSc1oc(-c2ccco2)nc1S(=O)(=O)c1ccc(Cl)cc1)c1ccccc1 | inconclusive: 6.31 µM [activator, single point]
C[C@@H](C(=O)NC(=O)NCc1ccccc1)N1C(=O)c2ccccc2C1=O | inconclusive: 0.794 µM [activator, full curve, poor fit]
Cc1ccc(CNC(=O)c2cc3c(=O)n4ccccc4nc3n(CC3CCCO3)c2=N)cc1 (configuration not stated) | inconclusive: 16.4 µM [inhibitor, partial curve, poor fit]
CCCC1=C(C(=O)OCC)C(c2ccc(NC(C)=O)cc2)NC(=O)N1 (configuration not stated) | inconclusive: 3.66 µM [inhibitor, partial curve, poor fit]
COc1ccc(NC(=O)NCc2ccc3c(c2)OCO3)cc1 | inconclusive: 8.91 µM [inhibitor, partial curve]
Fc1ccc(CSc2ccc(-c3ccco3)nn2)cc1 | inactive
CC(=O)Nc1ccc(OCc2nnc(-c3ccc(Cl)cc3)o2)cc1 | inactive
CCOc1ccc(CN2C(=O)c3ccccc3Sc3ccc(C(=O)NCc4ccc(C)cc4)cc32)cc1 | active: 10 µM
N/C(=N\OC(=O)c1ccc(Cl)cc1Cl)c1ccccn1 | active: 3.66 µM
Cc1cc(NC(c2cccnc2)c2ccc3cccnc3c2O)no1 (configuration not stated) | inconclusive: 4.47 µM [inhibitor, full curve, poor fit]
CC(C)(C)c1ccc(C(=O)NCC(=O)N/N=C/c2cccnc2)cc1 | inactive

Structure (SMILES) | Potency
O=C(CSc1nc2ccccc2o1)N1c2ccccc2Sc2ccccc21 | inconclusive: 23.1 µM [inhibitor, partial curve, poor fit]
Cc1nc2nc(SCC(=O)NC(C)c3ccccc3)nn2c(C)c1Cc1c(F)cccc1Cl (configuration not stated) | inactive
COc1ccc(CCNC(=O)C(C)Sc2ccccc2)cc1OC (configuration not stated) | inconclusive: 0.631 µM [inhibitor, full curve, poor fit]
Cc1ccc(CC2(c3ccccc3)NC(=O)NC2=O)cc1 (configuration not stated) | inconclusive: 11.2 µM [inhibitor, single point]
CCN(CC)c1nc2ccccc2c(N)c1-c1ccccc1 | inconclusive: 31.6 µM [inhibitor, single point]
Cc1cc(=O)oc2cc(OCC(=O)NC3CCCCC3)c(Cl)cc12 | inactive
Cc1ccccc1-c1nc(CN2CCCC(C(=O)NCCCN3CCOCC3)C2)c(C)o1 (configuration not stated) | inconclusive: 17.8 µM [inhibitor, single point]
Fc1ccc(NC(=S)Nc2ccc(Cl)cc2Cl)cc1 | inactive
COc1ccc(S(=O)(=O)N2CCC(Nc3ccccc3Cl)CC2)cc1 | inconclusive: 22.4 µM [inhibitor, single point]
COc1cccc(NC(=O)COc2ccccc2C(N)=O)c1 | inconclusive: 3.55 µM [activator, single point]
O=c1cc(NCc2ccccc2)nc2ccccn12 | inconclusive: 0.891 µM [activator, full curve, poor fit]
CN1CCc2c(sc3c2C(=O)NC(c2cccc(OC(=O)c4cccs4)c2)N3)C1 (configuration not stated) | inconclusive: 6.51 µM [activator, single point]
Cc1cc(C)c2c(c1)N[C@H](c1cccs1)[C@@H]1CCO[C@H]21 | inactive
CN(c1ccc(Cl)cc1)c1cc(=O)n(C)c2ccccc12 | inactive
Cc1cc2ccc3ccccc3c2cc1CN(C)C | inconclusive: 35.5 µM [inhibitor, single point]
COc1ccc(Br)cc1CN(C)CC(=O)Nc1cccc(S(=O)(=O)N2CCCC2)c1 | inconclusive: 12.6 µM [inhibitor, single point]
O=C(c1cnn2c(C(F)(F)F)cc(-c3ccccc3)nc12)N1CCC2(CC1)OCCO2 | inactive
Cc1cccc(C(CC(=O)NCC2(c3ccccc3)CCCC2)c2ccccc2)c1O (configuration not stated) | active: 10 µM
CCN(C(=O)CSc1nnc(-c2ccc(F)cc2)n1C)C1CCS(=O)(=O)C1 (configuration not stated) | inactive
Cc1nn2c(-c3cccc(NC(=O)CSc4nc5ccccc5o4)c3)nnc2c2ccccc12 | inconclusive: 25.1 µM [inhibitor, single point]
CCOc1ccc(CCNC(=O)c2cc3c(-c4cccc(OC)c4)nn(C)c3s2)cc1OCC | inconclusive: 7.08 µM [inhibitor, partial curve, poor fit]
CC(C)Nc1nc(NC(C)C)nc(OCCOC(=O)Nc2ccccc2)n1 | inconclusive: 6.51 µM [activator, single point]
O=C(NCCc1ccccc1)c1ccccc1SCC(=O)N1CCCC1 | inconclusive: 6.31 µM [activator, partial curve]
CCOc1ccc(NC(=O)CN2C(=O)C(c3ccccc3)=NC23CCCCCC3)cc1 | inconclusive: 0.562 µM [inhibitor, full curve, poor fit]

A run of entries from further up, for reference:
Structure (SMILES) | Potency
Cc1cc(C)c2c(c1)N[C@H](c1cccs1)[C@@H]1CCO[C@H]21 | inactive
CN(c1ccc(Cl)cc1)c1cc(=O)n(C)c2ccccc12 | inactive
Cc1cc2ccc3ccccc3c2cc1CN(C)C | inconclusive: 35.5 µM [inhibitor, single point]
COc1ccc(Br)cc1CN(C)CC(=O)Nc1cccc(S(=O)(=O)N2CCCC2)c1 | inconclusive: 12.6 µM [inhibitor, single point]

From PubChem BioAssay AID540276 (National Center for Advancing Translational Sciences (NCATS), 2011)
